Results from paper PMC3596311, “PTB-Associated Splicing Factor (PSF) Is a PPARγ-Binding Protein and Growth Regulator of Colon Cancer Cells” (PLoS ONE, 2013).
No constants are given. Whether binding was seen depends on the method and setting. Some binding calls cover weakened binding; strength is not graded here.

Columns and labels:
Experiment in all cases: two-hybrid; mammalian two-hybrid in CV-1 cells: GAL4 DNA-binding domain-PSF (pFN11A) and VP16-PPARγ1 (pFN10A), GAL4-UAS luciferase reporter; also with rosiglitazone 0.1–10 µM, which did not affect the interaction
[1] = target: T1, Gal4-PSF deletion mutant 370–707 (human) (UniProt P23246)
T1 sequence: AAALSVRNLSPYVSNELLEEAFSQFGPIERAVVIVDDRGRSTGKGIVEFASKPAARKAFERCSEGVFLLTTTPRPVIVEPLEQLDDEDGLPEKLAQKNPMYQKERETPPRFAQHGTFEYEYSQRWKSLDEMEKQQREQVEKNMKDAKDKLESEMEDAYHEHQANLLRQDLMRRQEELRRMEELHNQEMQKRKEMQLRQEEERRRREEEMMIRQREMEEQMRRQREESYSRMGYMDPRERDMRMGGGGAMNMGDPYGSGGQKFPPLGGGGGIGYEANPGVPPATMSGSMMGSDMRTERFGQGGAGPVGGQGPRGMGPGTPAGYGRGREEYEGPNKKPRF

[2] = target: T2, Gal4-PSF deletion mutant 450–707 (human) (UniProt P23246)
T2 sequence: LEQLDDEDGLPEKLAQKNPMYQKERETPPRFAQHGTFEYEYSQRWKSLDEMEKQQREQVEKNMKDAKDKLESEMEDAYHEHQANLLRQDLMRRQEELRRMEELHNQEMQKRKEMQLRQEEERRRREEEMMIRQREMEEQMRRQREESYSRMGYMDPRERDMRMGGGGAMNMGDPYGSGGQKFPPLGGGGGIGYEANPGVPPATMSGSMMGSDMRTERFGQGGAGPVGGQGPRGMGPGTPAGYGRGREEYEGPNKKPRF

[3] = target: T3, Gal4-PSF deletion mutant 290–707 (human) (UniProt P23246)
T3 sequence: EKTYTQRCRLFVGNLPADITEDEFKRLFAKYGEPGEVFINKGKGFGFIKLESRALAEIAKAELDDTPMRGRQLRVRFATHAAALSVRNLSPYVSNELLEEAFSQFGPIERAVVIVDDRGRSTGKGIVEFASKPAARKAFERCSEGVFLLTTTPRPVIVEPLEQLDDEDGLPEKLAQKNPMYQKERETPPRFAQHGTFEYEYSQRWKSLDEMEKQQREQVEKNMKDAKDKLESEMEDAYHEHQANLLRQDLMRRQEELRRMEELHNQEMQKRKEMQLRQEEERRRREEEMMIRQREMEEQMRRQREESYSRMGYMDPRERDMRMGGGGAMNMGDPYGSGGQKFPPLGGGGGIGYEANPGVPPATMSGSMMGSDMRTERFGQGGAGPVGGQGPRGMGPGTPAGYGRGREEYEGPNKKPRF

binding [1]: no binding
binding [2]: no binding
binding [3]: binds
B1: PPARγ1, full-length, fused to the VP16 activation domain (pFN10A-PPARγ1) (natural protein, UniProt P37231-2 1-477, looked up)
chain: MTMVDTEMPFWPTNFGISSVDLSVMEDHSHSFDIKPFTTVDFSSISTPHYEDIPFTRTDPVVADYKYDLKLQEYQSAIKVEPASPPYYSEKTQLYNKPHEEPSNSLMAIECRVCGDKASGFHYGVHACEGCKGFFRRTIRLKLIYDRCDLNCRIHKKSRNKCQYCRFQKCLAVGMSHNAIRFGRMPQAEKEKLLAEISSDIDQLNPESADLRALAKHLYDSYIKSFPLTKAKARAILTGKTTDKSPFVIYDMNSLMMGEDKIKFKHITPLQEQSKEVAIRIFQGCQFRSVEAVQEITEYAKSIPGFVNLDLNDQVTLLKYGVHEIIYTMLASLMNKDGVLISEGQGFMTREFLKSLRKPFGDFMEPKFEFAVKFNALELDDSDLAIFIAVIILSGDRPGLLNVKPIEDIQDNLLQALELQLKLNHPESSQLFAKLLQKMTDLRQIVTEHVQLLQVIKKTETDMSLHPLLQEIYKDLY
notes: CheckMate/Flexi Vector Mammalian Two-Hybrid System (Promega), vector pFN10A; also called VP16-PPARγ; VP-16-PPARγ1; source: CV-1 cells, transiently transfected, mammalian two-hybrid fusion
